According to paper PMC7765622, “The Cardioprotective PKA-Mediated Hsp20 Phosphorylation Modulates Protein Associations Regulating Cytoskeletal Dynamics” (International Journal of Molecular Sciences, 2020):

Target: 14-3-3, endogenous in mouse cardiac muscle (mouse (endogenous in cardiac extracts))
Test: co-IP; mouse cardiac extracts, mouse monoclonal 14-3-3 antibody or control IgG with protein-A/G agarose, overnight 4 °C; also with extracts phosphorylated in vitro with PKA or left untreated

B1: Hsp20 (small heat shock protein 20), endogenous in mouse cardiac muscle (protein, UniProt Q5EBG6 1-162)
chain: MEIPVPVQPSWLRRASAPLPGFSAPGRLFDQRFGEGLLEAELASLCPAAIAPYYLRAPSVALPTAQVSTDSGYFSVLLDVKHFLPEEISVKVVDDHVEVHARHEERPDEHGFIAREFHRRYRLPPGVDPAAVTSALSPEGVLSIQATPASAQAQLPSPPAAK
  binding: binds

These are yes or no findings as the source states them, for the method shown. Binding seen in cells or lysates may run through a third protein. Binding can be weak; no strength is given.
